16 molecules from patent publication US10377647B2, “Systems and methods for use of water with switchable ionic strength” (Queen's University at Kingson, priority 2010, dated 2019) can be followed below.

Values joined by “and” are separate entries in the source; they are usually repeats but may differ in a detail not shown here. Equal values may be shown once. Read-outs that look alike come from different tables or passages of the source.

Data set [1] can be described thus: THF separated and additive retained by 1H NMR, 0.80 molal additive. Type of data set: physicochemical. To be noted: 1:1 w/w THF:H2O, 30 min CO2.
A short description of data set [2]: Hydroformylation of styrene in the presence of switchable water additive. The note with it: 0.8 molal TMDAB, no phosphine added during recycling.
Data set [3] in a line: THF separated and additive retained by 1H NMR at different additive loadings. The format is physicochemical.
Data set [4] is described as follows: Removal of water from THF with TMDAB and CO2. To be noted: 30 min CO2.
Data set [5] is described as follows: Reversible destabilization of a clay-in-water suspension (settling).
A short description of data set [6]: Ceiling salting out limits with inorganic salts.
Data set [7] is described as follows: Chemical force spectrometry, tip/sample adhesion. To be noted: Mica.
Data set [8] can be described thus: Chemical force spectrometry, tip/sample adhesion. To be noted: Silica.
A short description of data set [9]: Comparative: primary and secondary amine/water switching. The format is physicochemical. To be noted: for time of CO2 bubbling until solution separated into two phases / phase recombination on bubbling N2: 3:3:1 v/v/v H2O:amine:THF; for phase recombination on bubbling N2: N2 90 minutes at 50° C.
Data set [10] can be described thus: Salting out THF with secondary amine additives. To be noted: for Additive retained in H2O / THF forced out: 1.60 molal, 1:1 w/w THF:water, 30 min CO2; for time of argon bubbling until the two phases recombined: 50° C.
Data set [11] can be described thus: Salting out THF with diamidine. The note with it: 0.80 molal, 1:1 w/w THF:water, 30 min CO2.
Data set [12] in a line: Salting out THF with methylated spermine.
Data set [13] can be described thus: Primary amines as additives: salting out THF. The note with it: for phase recombination on bubbling N2: 60° C. water bath, 60 minutes.
A short description of data set [14]: Expulsion of THF from water and recovery of water-immiscible additive. The note with it: for additive removed from the aqueous phase after N2 treatment: separated aqueous phase, N2 90 minutes at 60° C.
Where [15] appears, read: Carboxylic Acid-terminated tip, 1 mM additive (pH 11 ± 0.2).
The mark [16] stands for this setting: Carboxylic Acid-terminated tip, 1 mM additive + CO2 (pH 5 ± 0.2).
Where [17] appears, read: Phenyl-terminated tip, 1 mM additive (pH 11 ± 0.2).
The mark [18] stands for this setting: Phenyl-terminated tip, 1 mM additive + CO2 (pH 5 ± 0.2).
Where [19] appears, read: run 1, 0.80 molal, 1:1 w/w THF:water, 30 min CO2.
The mark [20] stands for this setting: run 2 (after Ar at 50° C. and repeated CO2).
Where [21] appears, read: 1.50 g H2O, 1.50 g THF, 0.30 g additive, CO2 45 minutes.

As for `CN(C)CCCCN(C)C` [TMDAB, N,N,N′,N′-tetramethyl-1,4-diaminobutane], the “% Additive Retained” value in data set [1] is 99.2 ± 0.4%; in [3] (THF:H2O:Additive 3:3:1 w/w/w) it was 87.1 ± 2.1%; in data set [3] (THF:H2O:Additive 5:5:1 w/w/w), 99.6% and 99.6 ± 0.1%; in [3] (THF:H2O:Additive 10:10:1 w/w/w), 99.4 ± 0.1%; in [3] (THF:H2O:Additive 15:15:1 w/w/w) it was 98.4 ± 0.4%. Further, the “% THF Separated” value in data set [1] was 82 ± 0.6%; in [3] (THF:H2O:Additive 3:3:1 w/w/w), 87 ± 1.3%; in data set [3] (THF:H2O:Additive 5:5:1 w/w/w), 87% and 87 ± 0.6%; in data set [3] (THF:H2O:Additive 10:10:1 w/w/w), 80 ± 0.5%; in [3] (THF:H2O:Additive 15:15:1 w/w/w), 74% and 74 ± 0.9%. Also, the “% Aldehyde Selectivity” value turned out to be 87.7% in [2] (Cycle 1), 87.3% in [2] (Cycle 2) and 85.2% in data set [2] (Cycle 3). In addition, the “% Conversion” value in [2] (Cycle 1) turned out to be 85.2%; in data set [2] (Cycle 2) it was 43.8%; in [2] (Cycle 3) it was 8.9%. For the same molecule, the B/L worked out at 7.7 in data set [2] (Cycle 1), 5.4 in data set [2] (Cycle 2) and 4.6 in data set [2] (Cycle 3). In [4] (start 1.3 mol % TMDAB), the “TMDAB in the dried organic THF phase” value is given as 0.3 mol %. In [4] (start 65.6 mol % THF, 33.1 mol % H2O, 1.3 mol % TMDAB), the “H2O in the dried organic THF phase” value is given as 20.5 mol %. The “settling behaviour of kaolinite clay” value in data set [5] (1 mM TMDAB treated 1 hour with CO2) is “settling of clay with a clean supernatant and a clear sediment line”; in data set [5] (1 mM TMDAB, 1 hour CO2 followed by 1 hour N2) it was “stable suspension”; in data set [5] (5 g clay in 100 mL 1 mM TMDAB, no CO2) it was “stable suspension”.
On to `CC(O)CN(CCCN(C)C)CCCN(C)C` (centres unmarked) [DMAPAP], for which the “% Additive Retained” value in data set [1] was 98.8 ± 0.4%; in data set [3] (THF:H2O:Additive 3:3:1 w/w/w), 87.1 ± 7.3%; in data set [3] (THF:H2O:Additive 5:5:1 w/w/w) it was 98.4 ± 0.4%; in [3] (THF:H2O:Additive 10:10:1 w/w/w), 96.0 ± 0.8%; in [3] (THF:H2O:Additive 15:15:1 w/w/w) it was 94.4 ± 1.1%. In addition, the “% THF Separated” value in data set [1] turned out to be 79 ± 1.2%; in data set [3] (THF:H2O:Additive 3:3:1 w/w/w), 78 ± 6.1%; in data set [3] (THF:H2O:Additive 5:5:1 w/w/w), 81 ± 1.0%; in data set [3] (THF:H2O:Additive 10:10:1 w/w/w), 69 ± 1.4%; in data set [3] (THF:H2O:Additive 15:15:1 w/w/w), 62 ± 1.1%.
For `N.N.O=S(=O)(O)O` [(NH4)2SO4], the “% Organic Salted Out” value in data set [6] (Solvent MeCN, about 2 g solvent + 2 g water, salt to constant volume) is on record as 99 ± 0.1%; in data set [6] (Solvent THF, about 2 g solvent + 2 g water, salt to constant volume), 99 ± 0.6%.
Consider `CCCCN=C(C)N(C)C` [Additive C4], for which the “Adhesion Force” value in data set [7] (setting [15]) was found to be 0.01 ± 0.01 nN; in data set [7] (setting [16]), 1.58 ± 0.18 nN; in [7] (setting [17]), 0.01 ± 0.01 nN; in data set [7] (setting [18]) it was 0.74 ± 0.35 nN; in data set [8] (setting [15]) it was 0 nN; in data set [8] (setting [16]) it was 0.18 ± 0.04 nN. Also, the results for the “Adhesion Force” value in data set [8] (setting [17]) and in data set [8] (setting [18]) were 0 nN and 0.07 ± 0.02 nN, respectively.
For `CNCCO` [2-(methylamino)ethanol, 2-(methylamino) ethanol], in data set [9], the “time of CO2 bubbling until solution separated into two phases” value was found to be 10 min and the “phase recombination on bubbling N2” value is listed as “did not recombine into one miscible layer”.
For the molecule `[Cl-].[Na+]` [NaCl], the “% Organic Salted Out” value in data set [6] was 98 ± 0.5% and 93 ± 1.0%.
For the molecule `CC(C)(C)NCCO` [N-tert-butylethanolamine], in data set [10], the “Additive retained in H2O” value was determined as 99.84 ± 0.04% and the THF forced out was 68.7 ± 0.4%. The “time of argon bubbling until the two phases recombined” value in data set [10] (Ar 5 mL/min) is reported as 30 min.
For the molecule `C/C(=N\CCCC/N=C(\C)N(C)C)N(C)C` [DIAC, N′,N″-(butane-1,4-diyl)bis(N,N-dimethylacetimidamide)], in data set [11], the “THF forced out of the aqueous phase” value was found to be 54.5% and the “additive retained in the aqueous phase” value is given as 99.5%.
On to `CN(C)CCCN(C)CCCCN(C)CCCN(C)C` [MeSpe, N^1,N^1′-(butane-1,4-diyl)bis(N^1,N^3,N^3-trimethylpropane-1,3-diamine)], for which, in data set [12] (setting [19]), the “Additive retained in THF” value was found to be 99.85% and the THF forced out was found to be 84.3%. In addition, in data set [12] (setting [20]), the “Additive retained in THF” value is on record as 99.79% and the THF forced out is 85.5%.
In the case of `NCCN` [ethylenediamine], in data set [13] (18:18:1 H2O:THF:amine), the “time of CO2 bubbling until two liquid phases were observed” value turned out to be 10 min. Moreover, in [13] (18:18:1 H2O:THF:amine, CO2 10 minutes), the “THF forced out of the aqueous phase” value is roughly 67%. Further, the “phase recombination on bubbling N2” value in [13] was “the two phases did not recombine”.
As to `CNC(C)(C)C` [N-tert-butymethylamine], in data set [10], the “Additive retained in H2O” value came out at 99.75 ± 0.04% and the THF forced out is on record as 67.6 ± 0.8%. Also, in data set [10] (higher Ar flow rate of 15 mL/min), the “time of argon bubbling until the two phases recombined” value was determined as 120 min.
In the case of `CN(C)CCN(C)CCN(C)CCN(C)C` [HMTETA, 1,1,4,7,10,10-hexamethyl triethylenetetramine], the “% Additive Retained” value in data set [1] came to 99.3 ± 0.4%; in data set [3] (THF:H2O:Additive 3:3:1 w/w/w) it was 95.6 ± 1.5%; in data set [3] (THF:H2O:Additive 5:5:1 w/w/w), 98.4 ± 1.2%; in data set [3] (THF:H2O:Additive 10:10:1 w/w/w), 98.0 ± 1.0%; in data set [3] (THF:H2O:Additive 15:15:1 w/w/w) it was 98.2 ± 0.3%. In addition, the “% THF Separated” value in [1] is 78 ± 0.9%; in data set [3] (THF:H2O:Additive 3:3:1 w/w/w) it was 80 ± 4.0%; in [3] (THF:H2O:Additive 5:5:1 w/w/w), 80 ± 3.0%; in [3] (THF:H2O:Additive 10:10:1 w/w/w), 70 ± 1.3%; in [3] (THF:H2O:Additive 15:15:1 w/w/w) it was 65 ± 4.9%.
Consider `CCCCCCCCN=C(C)N(C)C` [Additive C8], for which the “Adhesion Force” value is given as 0.23 ± 0.28 nN in data set [7] (setting [15]); 1.94 ± 0.23 nN in data set [7] (setting [16]); 1.97 ± 0.19 nN in data set [7] (setting [17]); 0.41 ± 0.20 nN in [7] (setting [18]); 0.39 ± 0.20 nN in data set [8] (setting [15]); 1.53 ± 0.19 nN in data set [8] (setting [16]). Moreover, the “Adhesion Force” value is 0.97 ± 0.33 nN in [8] (setting [17]) and 1.05 ± 0.38 nN in [8] (setting [18]).
For the molecule `CCCN(CC)CCCCN(CC)CCC` [N,N′-diethyl-N,N′-dipropyl-1,4-diaminobutane], the “THF removed from the aqueous phase after CO2 treatment” value in data set [14] (setting [21]) is 68%. The “additive removed from the aqueous phase after N2 treatment” value in data set [14] came out at 81%.
For the molecule `NCCO` [ethanolamine], in data set [13] (5:5:1 H2O:THF:amine), the “time of CO2 bubbling until two liquid phases were observed” value amounted to 20 min. In addition, in data set [13] (5:5:1 H2O:THF:amine, CO2 20 minutes), the “THF forced out of the aqueous phase” value was roughly 62%. Besides, the “phase recombination on bubbling N2” value in data set [13] is “the two phases did not recombine”. The “phase separation on bubbling CO2” value in data set [9] (3:3:1 v/v/v H2O:amine:DMSO, CO2 120 minutes) is on record as “did not separate into two phases”. Besides, in data set [9], the “time of CO2 bubbling until solution separated into two phases” value was determined as 30 min and the “phase recombination on bubbling N2” value is on record as “did not recombine into one miscible layer”.
For `CCN(CC)CCCCN(CC)CC` [TEDAB, N,N,N′,N′-tetraethyl-1,4-diaminobutane], in [14] (setting [21]), the “THF removed from the aqueous phase after CO2 treatment” value was 77.2±3.5% and the “additive residing in the aqueous phase after CO2 treatment” value is listed as 91.1±3.7%. In data set [14] (after CO2 and N2 steps), the “overall total THF removed from the aqueous phase at the end of the procedure” value is listed as 90.0±2.1%. The “additive removed from the aqueous phase after N2 treatment” value in data set [14] was found to be 49.3±6.3%.
